# Measurements published in the supplement of paper PMC8728848.
# The list shows a part of the results.
# B1: MUB70 (Lactobacillus reuteri) (protein)
# chain: CVHVQYIDGETDQMLRQDDLDGYTDETIPYSTAEGIKKFEGDGYELFKDNFPAGEKFDNDDTNDQFYTVIF
# Tests used:
# Assay in all cases: glycan array binding signal (z-score within array); higher = stronger binding
# Settings in all cases: glycan notation: IUPAC condensed, linker removed
# [1] = target: GlcNAc(b1-4)GlcNAc(b1-4)GlcNAc(b1-4)GlcNAc(b1-4)GlcNAc
# Summary of the method: (§1)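 The Consortium for Functional Glycomics database supplied 3228 glycan arrays, of which those lacking an available protein sequence were dropped. The binding signal, a within-array Z-score, was averaged across arrays of the same protein sequence and across linkers. Negative scores can be read as non-binding.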
# [2] = target: GlcNAc(b1-4)GlcNAc(b1-4)GlcNAc(b1-4)GlcNAc(b1-4)GlcNAc(b1-4)GlcNAc
# Summary of the method: as §1
# [3] = target: GlcNAc(b1-4)[GlcNAc(b1-6)]GalNAc
# Summary of the method: as §1
# [4] = target: GlcNAc(b1-6)Gal(b1-4)GlcNAc
# Summary of the method: as §1
# [5] = target: GlcNAc(b1-6)GalNAc
# Summary of the method: as §1
# [6] = target: GlcNAc6S(b1-3)Gal(b1-4)GlcNAc
# Summary of the method: as §1
# [7] = target: Kdn(a2-3)Gal(b1-3)GalNAc
# Summary of the method: as §1
# [8] = target: Kdn(a2-3)Gal(b1-3)GlcNAc
# Summary of the method: as §1
# [9] = target: Kdn(a2-3)Gal(b1-4)Glc
# Summary of the method: as §1
# [10] = target: Kdn(a2-3)Gal(b1-4)GlcNAc
# Summary of the method: as §1
# [11] = target: Kdn(a2-3)Gal(b1-4)[Fuc(a1-3)]GlcNAc
# Summary of the method: as §1
# [12] = target: Kdn(a2-6)Gal(b1-4)GlcNAc
# Summary of the method: as §1
# [13] = target: Man(a1-2)Man(a1-2)Man(a1-3)Man
# Summary of the method: as §1
# [14] = target: Man(a1-2)Man(a1-2)Man(a1-6)[Man(a1-3)]Man
# Summary of the method: as §1
# [15] = target: Man(a1-2)Man(a1-3)Man
# Summary of the method: as §1
# [16] = target: Man(a1-2)Man(a1-3)[Man(a1-2)Man(a1-6)]Man
# Summary of the method: as §1
# [17] = target: Man(a1-2)Man(a1-3)[Man(a1-2)Man(a1-6)]Man(a1-6)[Man(a1-2)Man(a1-2)Man(a1-3)]Man
# Summary of the method: as §1
# [18] = target: Man(a1-2)Man(a1-3)[Man(a1-2)Man(a1-6)]Man(a1-6)[Man(a1-2)Man(a1-2)Man(a1-3)]Man(b1-4)GlcNAc(b1-4)GlcNAc
# Summary of the method: as §1
# [19] = target: Man(a1-2)Man(a1-3)[Man(a1-6)]Man(a1-6)[Man(a1-2)Man(a1-3)]Man(b1-4)GlcNAc(b1-4)GlcNAc
# Summary of the method: as §1
# [20] = target: Man(a1-2)Man(a1-6)[Man(a1-3)]Man(a1-6)[Man(a1-2)Man(a1-2)Man(a1-3)]Man
# Summary of the method: as §1
# [21] = target: Man(a1-2)Man(a1-6)[Man(a1-3)]Man(a1-6)[Man(a1-2)Man(a1-2)Man(a1-3)]Man(b1-4)GlcNAc(b1-4)GlcNAc
# Summary of the method: as §1
# [22] = target: Man(a1-3)[Man(a1-6)]Man
# Summary of the method: as §1
# [23] = target: Man(a1-3)[Man(a1-6)]Man(a1-6)[Man(a1-2)Man(a1-3)]Man(b1-4)GlcNAc(b1-4)GlcNAc
# Summary of the method: as §1
# [24] = target: Man(a1-3)[Man(a1-6)]Man(a1-6)[Man(a1-3)]Man
# Summary of the method: as §1
# [25] = target: Man(a1-3)[Man(a1-6)]Man(a1-6)[Man(a1-3)]Man(b1-4)GlcNAc(b1-4)GlcNAc
# Summary of the method: as §1
# [26] = target: Man(a1-3)[Man(a1-6)]Man(b1-4)GlcNAc(b1-4)GlcNAc
# Summary of the method: as §1
# [27] = target: Man(a1-3)[Man(a1-6)]Man(b1-4)GlcNAc(b1-4)[Fuc(a1-6)]GlcNAc
# Summary of the method: as §1
# [28] = target: Man(a1-6)Man
# Summary of the method: as §1
# [29] = target: Man(b1-4)GlcNAc
# Summary of the method: as §1
# [30] = target: MurNAc(b1-4)GlcNAc
# Summary of the method: as §1
# [31] = target: Neu5Ac(a2-3)Gal
# Summary of the method: as §1
# [32] = target: Neu5Ac(a2-3)Gal(b1-3)GalNAc
# Summary of the method: as §1
# [33] = target: Neu5Ac(a2-3)Gal(b1-3)GalNAc(b1-3)Gal(a1-4)Gal(b1-4)Glc
# Summary of the method: as §1
# [34] = target: Neu5Ac(a2-3)Gal(b1-3)GalNAc(b1-4)Gal(b1-4)Glc
# Summary of the method: as §1
# [35] = target: Neu5Ac(a2-3)Gal(b1-3)GalNAc(b1-4)[Neu5Ac(a2-3)]Gal(b1-4)Glc
# Summary of the method: as §1
# [36] = target: Neu5Ac(a2-3)Gal(b1-3)GalNAc(b1-4)[Neu5Ac(a2-8)Neu5Ac(a2-3)]Gal(b1-4)Glc
# Summary of the method: as §1
# [37] = target: Neu5Ac(a2-3)Gal(b1-3)GalNAc6S
# Summary of the method: as §1
# [38] = target: Neu5Ac(a2-3)Gal(b1-3)GlcNAc
# Summary of the method: as §1
# [39] = target: Neu5Ac(a2-3)Gal(b1-3)GlcNAc(b1-2)Man
# Summary of the method: as §1
# [40] = target: Neu5Ac(a2-3)Gal(b1-3)GlcNAc(b1-2)Man(a1-3)[GlcNAc(b1-4)][Neu5Ac(a2-3)Gal(b1-3)GlcNAc(b1-2)Man(a1-6)]Man(b1-4)GlcNAc(b1-4)GlcNAc
# Summary of the method: as §1
# [41] = target: Neu5Ac(a2-3)Gal(b1-3)GlcNAc(b1-2)Man(a1-3)[Neu5Ac(a2-3)Gal(b1-3)GlcNAc(b1-2)Man(a1-6)]Man(b1-4)GlcNAc(b1-4)GlcNAc
# Summary of the method: as §1
# [42] = target: Neu5Ac(a2-3)Gal(b1-3)GlcNAc(b1-2)[Neu5Ac(a2-3)Gal(b1-3)GlcNAc(b1-4)]Man(a1-6)[Neu5Ac(a2-3)Gal(b1-3)GlcNAc(b1-2)Man(a1-3)]Man(b1-4)GlcNAc(b1-4)GlcNAc
# Summary of the method: as §1
# [43] = target: Neu5Ac(a2-3)Gal(b1-3)GlcNAc(b1-3)Gal(b1-3)GlcNAc
# Summary of the method: as §1
# [44] = target: Neu5Ac(a2-3)Gal(b1-3)GlcNAc(b1-3)Gal(b1-4)GlcNAc
# Summary of the method: as §1
# [45] = target: Neu5Ac(a2-3)Gal(b1-3)GlcNAc(b1-3)GalNAc
# Summary of the method: as §1
binder,measurement,setting,value
B1,glycan array binding signal (z-score),[1],-0.275
same,glycan array binding signal (z-score),[2],-0.508
same,glycan array binding signal (z-score),[3],-0.025
same,glycan array binding signal (z-score),[4],0.571
same,glycan array binding signal (z-score),[5],-0.234
same,glycan array binding signal (z-score),[6],0.247
same,glycan array binding signal (z-score),[7],0.066
same,glycan array binding signal (z-score),[8],-0.507
same,glycan array binding signal (z-score),[9],0.004
same,glycan array binding signal (z-score),[10],-0.601
same,glycan array binding signal (z-score),[11],-0.04
same,glycan array binding signal (z-score),[12],0.34
same,glycan array binding signal (z-score),[13],0.872
same,glycan array binding signal (z-score),[14],-0.556
same,glycan array binding signal (z-score),[15],-0.605
same,glycan array binding signal (z-score),[16],-0.952
same,glycan array binding signal (z-score),[17],0.173
same,glycan array binding signal (z-score),[18],-0.427
same,glycan array binding signal (z-score),[19],-0.759
same,glycan array binding signal (z-score),[20],-0.778
same,glycan array binding signal (z-score),[21],0.042
same,glycan array binding signal (z-score),[22],-0.052
same,glycan array binding signal (z-score),[23],0.33
same,glycan array binding signal (z-score),[24],-0.728
same,glycan array binding signal (z-score),[25],-1.04
same,glycan array binding signal (z-score),[26],-0.322
same,glycan array binding signal (z-score),[27],-0.043
same,glycan array binding signal (z-score),[28],-0.195
same,glycan array binding signal (z-score),[29],-0.23
same,glycan array binding signal (z-score),[30],-0.448
same,glycan array binding signal (z-score),[31],-1.31
same,glycan array binding signal (z-score),[32],-0.295
same,glycan array binding signal (z-score),[33],-0.328
same,glycan array binding signal (z-score),[34],-0.884
same,glycan array binding signal (z-score),[35],0.667
same,glycan array binding signal (z-score),[36],-0.528
same,glycan array binding signal (z-score),[37],-0.112
same,glycan array binding signal (z-score),[38],-0.286
same,glycan array binding signal (z-score),[39],0.03
same,glycan array binding signal (z-score),[40],-0.263
same,glycan array binding signal (z-score),[41],-0.652
same,glycan array binding signal (z-score),[42],6.11
same,glycan array binding signal (z-score),[43],0.438
same,glycan array binding signal (z-score),[44],-0.139
same,glycan array binding signal (z-score),[45],-0.225

# 12 successive records out of the list so far:
binder,measurement,setting,value
B1,glycan array binding signal (z-score),[31],-1.31
same,glycan array binding signal (z-score),[32],-0.295
same,glycan array binding signal (z-score),[33],-0.328
same,glycan array binding signal (z-score),[34],-0.884
same,glycan array binding signal (z-score),[35],0.667
same,glycan array binding signal (z-score),[36],-0.528
same,glycan array binding signal (z-score),[37],-0.112
same,glycan array binding signal (z-score),[38],-0.286
same,glycan array binding signal (z-score),[39],0.03
same,glycan array binding signal (z-score),[40],-0.263
same,glycan array binding signal (z-score),[41],-0.652
same,glycan array binding signal (z-score),[42],6.11
